Among the data in PMC4627230, “Identification of TAX2 peptide as a new unpredicted anti-cancer agent” (Oncotarget, 2015) are binding values, retold here.

Protein sequences, listed by entry. Tags and fused reporters are not part of them. Residues count along the entry.
UniProt P07996, residues 19-1170: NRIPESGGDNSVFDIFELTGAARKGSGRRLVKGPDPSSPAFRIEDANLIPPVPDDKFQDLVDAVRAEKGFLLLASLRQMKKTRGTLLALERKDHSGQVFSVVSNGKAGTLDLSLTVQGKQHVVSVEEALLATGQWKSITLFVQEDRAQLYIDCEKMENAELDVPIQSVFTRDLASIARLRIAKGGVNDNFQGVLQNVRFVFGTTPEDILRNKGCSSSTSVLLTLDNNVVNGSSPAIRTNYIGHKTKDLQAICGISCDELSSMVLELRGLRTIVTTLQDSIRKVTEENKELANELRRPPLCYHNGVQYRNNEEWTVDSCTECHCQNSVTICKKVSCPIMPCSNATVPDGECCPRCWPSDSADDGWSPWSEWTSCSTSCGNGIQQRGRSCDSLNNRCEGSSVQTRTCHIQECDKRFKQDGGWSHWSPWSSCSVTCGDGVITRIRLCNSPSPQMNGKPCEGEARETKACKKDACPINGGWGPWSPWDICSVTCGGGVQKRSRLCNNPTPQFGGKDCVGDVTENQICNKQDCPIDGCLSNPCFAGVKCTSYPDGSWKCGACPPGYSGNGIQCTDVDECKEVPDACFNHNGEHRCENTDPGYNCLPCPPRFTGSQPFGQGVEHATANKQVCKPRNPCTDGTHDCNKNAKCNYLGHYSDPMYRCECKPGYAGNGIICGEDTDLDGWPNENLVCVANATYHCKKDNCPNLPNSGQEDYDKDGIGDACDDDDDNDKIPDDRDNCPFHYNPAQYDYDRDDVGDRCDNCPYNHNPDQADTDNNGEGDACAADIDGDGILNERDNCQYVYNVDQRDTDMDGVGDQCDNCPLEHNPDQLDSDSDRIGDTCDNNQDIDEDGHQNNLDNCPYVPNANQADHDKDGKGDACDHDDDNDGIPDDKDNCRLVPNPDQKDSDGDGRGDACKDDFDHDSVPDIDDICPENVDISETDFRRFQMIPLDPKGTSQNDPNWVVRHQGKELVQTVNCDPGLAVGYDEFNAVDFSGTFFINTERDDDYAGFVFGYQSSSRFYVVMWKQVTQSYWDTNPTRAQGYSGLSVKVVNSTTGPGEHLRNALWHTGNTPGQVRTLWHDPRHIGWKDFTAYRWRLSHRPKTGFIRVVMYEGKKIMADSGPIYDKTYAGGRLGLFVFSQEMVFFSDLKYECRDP

Results are given in words; binding and its absence hold for the method and conditions named. Some binding calls cover weakened binding; strength is not graded here.

For assay [1], the target named is Thrombospondin from human platelets (thrombospondin-1) (human) (UniProt P07996). The experiment in a line: MST; data not shown; no details told; both purified.
For assay [2] the target is unchanged. The experiment in a line: SPR; data not shown; no details told; both purified. In general terms: In SPR one partner is held on a chip, and binding of the other changes the refractive index at the surface.
For assay [3] the target is unchanged. The assay can be described thus: ELISA; TSP-1 (5 μg/mL; 0.5 μg) coated on microtiter plates overnight at 4°C, blocked with 1% BSA; biotinylated peptide 10 μg/mL in buffer with 0.5% BSA, 3 h, room temperature; non-labeled TAX2 competitor 0.001 to 5 mg/mL; detected with anti-biotin antibody; both purified.

Take CEVSQLLKGDAC (disulfide bridge between the two cysteines (cyclic)) [TAX2 peptide (cyclic disulfide analogue …), not labelled]: the binding entry in assay [1], in assay [2] and in assay [3] was “binds” throughout.

Take LSVDESKAQGIL (biotin (position not given)) [biotinylated scrambled dodecapeptide (…)]: the binding result in assay [3] is “no binding (tested: 10 μg/mL)”.
